From article PMC3091842 come the findings set out here.

Sequences of proteins named here, by UniProt entry; tags and fusion partners are left off.
UniProt Q14999: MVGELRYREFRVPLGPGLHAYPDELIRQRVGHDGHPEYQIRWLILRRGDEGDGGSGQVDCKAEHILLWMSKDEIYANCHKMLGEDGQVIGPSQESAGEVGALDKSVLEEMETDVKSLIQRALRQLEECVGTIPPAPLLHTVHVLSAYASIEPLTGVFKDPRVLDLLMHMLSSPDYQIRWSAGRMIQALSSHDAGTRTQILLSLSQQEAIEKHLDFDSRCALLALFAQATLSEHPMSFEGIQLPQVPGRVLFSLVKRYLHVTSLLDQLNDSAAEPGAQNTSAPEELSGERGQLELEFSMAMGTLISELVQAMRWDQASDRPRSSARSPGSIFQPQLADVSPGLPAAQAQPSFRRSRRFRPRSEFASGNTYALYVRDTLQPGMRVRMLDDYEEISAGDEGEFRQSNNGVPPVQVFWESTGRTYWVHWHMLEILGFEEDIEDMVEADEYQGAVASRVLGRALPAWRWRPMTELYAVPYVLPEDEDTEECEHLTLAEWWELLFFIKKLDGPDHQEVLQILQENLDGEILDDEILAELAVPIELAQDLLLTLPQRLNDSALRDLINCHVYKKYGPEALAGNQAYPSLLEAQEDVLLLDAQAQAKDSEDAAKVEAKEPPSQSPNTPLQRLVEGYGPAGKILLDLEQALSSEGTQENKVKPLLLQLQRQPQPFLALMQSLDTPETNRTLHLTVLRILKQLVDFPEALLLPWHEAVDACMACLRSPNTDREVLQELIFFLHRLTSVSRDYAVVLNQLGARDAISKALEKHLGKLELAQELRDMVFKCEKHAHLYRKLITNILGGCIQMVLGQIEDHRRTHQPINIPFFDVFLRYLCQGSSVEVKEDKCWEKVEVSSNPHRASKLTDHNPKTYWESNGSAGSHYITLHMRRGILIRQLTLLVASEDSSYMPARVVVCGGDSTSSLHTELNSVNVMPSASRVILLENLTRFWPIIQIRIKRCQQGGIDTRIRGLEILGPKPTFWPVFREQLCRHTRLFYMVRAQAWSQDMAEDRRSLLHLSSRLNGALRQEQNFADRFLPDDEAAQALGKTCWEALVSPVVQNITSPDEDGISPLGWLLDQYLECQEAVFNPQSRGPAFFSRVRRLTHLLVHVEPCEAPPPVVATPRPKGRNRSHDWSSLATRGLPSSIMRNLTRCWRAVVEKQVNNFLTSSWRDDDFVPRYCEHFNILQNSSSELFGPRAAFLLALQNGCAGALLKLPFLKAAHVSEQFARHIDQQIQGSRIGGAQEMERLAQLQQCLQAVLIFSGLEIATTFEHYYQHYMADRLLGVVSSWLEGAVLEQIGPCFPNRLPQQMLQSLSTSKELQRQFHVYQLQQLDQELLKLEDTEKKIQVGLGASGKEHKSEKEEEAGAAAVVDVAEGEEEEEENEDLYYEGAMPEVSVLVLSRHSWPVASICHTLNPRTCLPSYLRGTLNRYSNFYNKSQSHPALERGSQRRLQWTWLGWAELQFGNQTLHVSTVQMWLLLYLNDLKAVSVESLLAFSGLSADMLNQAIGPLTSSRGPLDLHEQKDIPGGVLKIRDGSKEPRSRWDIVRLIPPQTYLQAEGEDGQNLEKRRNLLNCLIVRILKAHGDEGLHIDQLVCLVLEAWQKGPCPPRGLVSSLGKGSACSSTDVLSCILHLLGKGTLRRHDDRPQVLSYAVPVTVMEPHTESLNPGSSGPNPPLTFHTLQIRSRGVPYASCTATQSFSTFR
UniProt O75147: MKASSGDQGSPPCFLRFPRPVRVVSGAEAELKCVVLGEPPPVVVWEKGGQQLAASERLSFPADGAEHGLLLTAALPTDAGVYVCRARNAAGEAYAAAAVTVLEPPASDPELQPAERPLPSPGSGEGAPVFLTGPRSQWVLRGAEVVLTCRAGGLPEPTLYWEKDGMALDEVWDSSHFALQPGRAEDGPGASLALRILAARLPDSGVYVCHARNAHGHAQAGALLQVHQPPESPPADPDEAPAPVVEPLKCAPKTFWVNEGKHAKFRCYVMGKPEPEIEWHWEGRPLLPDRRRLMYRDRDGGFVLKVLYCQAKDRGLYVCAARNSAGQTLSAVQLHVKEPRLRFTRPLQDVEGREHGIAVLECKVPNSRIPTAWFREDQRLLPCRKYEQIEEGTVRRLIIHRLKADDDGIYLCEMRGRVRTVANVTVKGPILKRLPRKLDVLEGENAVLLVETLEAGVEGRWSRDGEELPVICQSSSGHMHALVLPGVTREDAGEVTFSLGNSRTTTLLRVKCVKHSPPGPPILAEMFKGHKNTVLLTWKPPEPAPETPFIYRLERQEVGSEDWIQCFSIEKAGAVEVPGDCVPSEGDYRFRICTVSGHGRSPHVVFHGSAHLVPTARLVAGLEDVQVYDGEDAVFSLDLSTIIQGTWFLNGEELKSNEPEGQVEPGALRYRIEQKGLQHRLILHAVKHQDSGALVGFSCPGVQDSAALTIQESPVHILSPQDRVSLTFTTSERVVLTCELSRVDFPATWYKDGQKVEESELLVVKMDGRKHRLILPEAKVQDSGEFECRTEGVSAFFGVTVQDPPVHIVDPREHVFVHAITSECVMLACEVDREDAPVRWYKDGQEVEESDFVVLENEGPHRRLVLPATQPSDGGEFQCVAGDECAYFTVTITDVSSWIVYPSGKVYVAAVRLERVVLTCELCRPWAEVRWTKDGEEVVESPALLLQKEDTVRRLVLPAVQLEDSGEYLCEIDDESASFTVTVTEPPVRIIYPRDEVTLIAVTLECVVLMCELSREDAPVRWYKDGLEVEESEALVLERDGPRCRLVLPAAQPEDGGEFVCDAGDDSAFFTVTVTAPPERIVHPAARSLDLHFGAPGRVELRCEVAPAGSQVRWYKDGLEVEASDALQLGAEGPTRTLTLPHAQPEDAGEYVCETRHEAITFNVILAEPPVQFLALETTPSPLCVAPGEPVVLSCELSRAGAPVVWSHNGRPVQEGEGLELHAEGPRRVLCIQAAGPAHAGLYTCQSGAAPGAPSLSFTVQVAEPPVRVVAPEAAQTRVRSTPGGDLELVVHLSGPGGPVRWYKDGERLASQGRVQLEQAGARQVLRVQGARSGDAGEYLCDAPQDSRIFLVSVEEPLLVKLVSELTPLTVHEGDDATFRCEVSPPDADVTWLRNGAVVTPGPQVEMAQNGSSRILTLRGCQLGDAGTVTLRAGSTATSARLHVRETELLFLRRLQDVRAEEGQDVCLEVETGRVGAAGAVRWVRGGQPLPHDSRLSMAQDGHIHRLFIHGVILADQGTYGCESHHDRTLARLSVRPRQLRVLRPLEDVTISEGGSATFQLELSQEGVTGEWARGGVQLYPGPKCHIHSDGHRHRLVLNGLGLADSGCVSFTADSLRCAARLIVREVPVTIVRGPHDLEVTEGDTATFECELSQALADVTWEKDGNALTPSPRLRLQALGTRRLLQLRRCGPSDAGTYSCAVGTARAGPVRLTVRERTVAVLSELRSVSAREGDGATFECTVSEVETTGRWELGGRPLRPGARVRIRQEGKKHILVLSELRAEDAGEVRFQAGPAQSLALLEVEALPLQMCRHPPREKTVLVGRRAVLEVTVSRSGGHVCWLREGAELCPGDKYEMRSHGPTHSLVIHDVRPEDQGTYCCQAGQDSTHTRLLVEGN
UniProt P63208: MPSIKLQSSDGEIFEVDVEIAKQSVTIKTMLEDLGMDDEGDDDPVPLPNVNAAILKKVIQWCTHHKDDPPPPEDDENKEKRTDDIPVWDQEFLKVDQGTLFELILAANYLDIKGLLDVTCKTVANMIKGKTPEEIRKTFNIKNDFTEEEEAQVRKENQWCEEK

The target of the experiment is T1, HA-Flag-Fbxw8 (human) (UniProt Q8N3Y1).
T1 sequence: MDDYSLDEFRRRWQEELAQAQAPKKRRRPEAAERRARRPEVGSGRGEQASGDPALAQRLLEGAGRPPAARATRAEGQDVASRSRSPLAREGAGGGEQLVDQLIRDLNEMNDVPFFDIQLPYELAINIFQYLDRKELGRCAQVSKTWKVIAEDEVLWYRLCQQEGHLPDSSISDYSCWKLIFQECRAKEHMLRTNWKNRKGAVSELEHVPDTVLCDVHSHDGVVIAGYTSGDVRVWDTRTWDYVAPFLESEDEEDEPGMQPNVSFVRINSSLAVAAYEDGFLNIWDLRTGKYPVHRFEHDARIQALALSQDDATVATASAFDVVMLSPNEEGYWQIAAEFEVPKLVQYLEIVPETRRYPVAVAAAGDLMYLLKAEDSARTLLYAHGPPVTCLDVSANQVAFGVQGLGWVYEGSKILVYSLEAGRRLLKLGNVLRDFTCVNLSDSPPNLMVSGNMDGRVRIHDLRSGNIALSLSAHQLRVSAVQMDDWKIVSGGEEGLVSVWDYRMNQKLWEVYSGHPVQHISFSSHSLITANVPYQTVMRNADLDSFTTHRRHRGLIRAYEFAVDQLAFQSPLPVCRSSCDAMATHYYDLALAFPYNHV
Kind of experiment: affinity purification with mass spectrometry; lysates of 293T cells expressing HA-Flag-Fbxw8 (50 mM Tris-HCl pH 7.5, 150 mM NaCl, 0.5% Nonidet P40) immunoprecipitated with anti-HA resin, eluted with HA peptide, LC-MS/MS; CompPASS scoring of HCIPs.

Results are given in words; binding and its absence hold for the method and conditions named. Binding seen in cells or lysates may run through a third protein. A yes stands for co-enrichment or nearness to the bait. Other partners may have been found. Tags and fused reporters may be left off the sequences shown.

On to “Cul7 (endogenous, 293T) (from UniProt Q14999 1-1698)”, for which the binding result is given as “binds”.
The result for “OBSL1 (endogenous, 293T) (from UniProt O75147 1-1896)” reads “binds”; that for “Skp1A (endogenous, 293T) (from UniProt P63208 1-163)”, “binds”.
